Measurements from PubChem BioAssay AID540276 (National Center for Advancing Translational Sciences (NCATS), 2011).
Hit rate of the full screen: of about 300,000 compounds, about 5,400 (1.8%) were called active. This list was built around the results that the source calls inconclusive (neither active nor inactive); the mix of calls is not that of the screen. The call rests on the fitted dose curve; tested in HEK293 cells. Where the call is inconclusive, the potency comes from a doubtful curve fit.

assay: qHTS for inhibitors of binding or entry into cells for Marburg Virus; details: Marburg virus pseudotyped entry inhibition, cell reporter; series mostly up to 37.8 µM
Potency means the concentration at half of the fitted maximal effect.

Q: Which Potency does the source give for `CC1Cc2ccccc2N1C(=S)Nc1ccc(S(N)(=O)=O)cc1` (stereo not given) here?
A: inactive

Q: With `Cc1c(Cl)cccc1Nc1nc(N)nc(CN2CCc3ccccc3C2)n1` as the compound, how does the Potency read?
A: inactive

Q: Which Potency does the source give for `CC(C)(C)c1ccc(C(=O)c2c[nH]c(C(=O)NCc3cccs3)c2)cc1` here?
A: inconclusive: 15.8 µM [activator, single point]

Q: With `COc1ccc(-c2[nH]c(-c3ccc(OC)c(OC)c3)nc2SCC(=O)Nc2ccccc2)cc1` as the compound, how does the Potency read?
A: inactive

Q: Which Potency does the source give for `COc1ccc(C(=O)Nn2c(SCc3cccc([N+](=O)[O-])c3)nc3ccccc3c2=O)cc1` here?
A: active: 8.91 µM

Q: Which Potency does the source give for `CC1(C)CC(=O)C(C=NCc2ccc3c(c2)OCO3)=C(O)C1` here?
A: inconclusive: 20.6 µM [activator, single point]

Q: Which Potency does the source give for `COc1ccc(OC)c(C2C=C(C34CC5CC(CC(C5)C3)C4)NC(=S)N2)c1` (stereo not given) here?
A: active: 7.08 µM

Q: With `CCOc1ccc2[nH]c3c(=O)n(CCc4ccc(OC)cc4)cnc3c2c1` as the compound, how does the Potency read?
A: inactive

Q: With `COc1ccc(C(=O)c2cn(Cc3ccccc3F)c3ccc(F)cc3c2=O)cc1` as the compound, how does the Potency read?
A: inactive

Q: Which Potency does the source give for `CC(C)C(=O)N(Cc1ccc(F)cc1)Cc1nc2ccccc2c(=O)[nH]1` here?
A: inconclusive: 3.16 µM [activator, single point]

Q: For `COc1ccc2c(c1)c(C(=O)N/N=C/c1ccccc1Cl)c(C)n2C`, which Potency is on record?
A: inconclusive: 35.5 µM [inhibitor, single point]

Q: With `OC[C@H]1O[C@@H](n2cnc3c(NCCc4ccccc4)ncnc32)[C@H](O)[C@H]1O` as the compound, how does the Potency read?
A: inconclusive: 31.6 µM [inhibitor, full curve, poor fit]

Q: With `CSCCC(NC(=O)c1ccccc1)C(=O)OCC(=O)Nc1ccc(C)c(Cl)c1` (stereo not given) as the compound, how does the Potency read?
A: inactive

Q: With `COc1ccc(/C=C/c2nc3ccccc3n2Cc2ccccc2OC)cc1` as the compound, how does the Potency read?
A: inconclusive: 20.6 µM [inhibitor, single point]

Q: With `Nc1nc(N)nc(COc2ccccc2)n1` as the compound, how does the Potency read?
A: inconclusive: 0.146 µM [activator, full curve, poor fit]

Q: Which Potency does the source give for `COc1cc(C(=O)Nc2ccccc2OCc2cc(=O)n3cc(C)sc3n2)cc(OC)c1OC` here?
A: inactive

Q: With `Cc1nc(OCc2ccccc2)c2ccccc2n1` as the compound, how does the Potency read?
A: inconclusive: 7.08 µM [inhibitor, partial curve, poor fit]

Q: Which Potency does the source give for `Cc1ccc(-c2nnc(Nc3ccc(Cl)cc3)c3ccccc23)cc1S(=O)(=O)NCC1CCCO1` (stereo not given) here?
A: inconclusive: 35.5 µM [inhibitor, single point]

Q: For `Cc1ccc(CNC(=O)CSc2nccn(-c3ccc(C)c(F)c3)c2=O)cc1`, which Potency is on record?
A: inconclusive: 0.1 µM [inhibitor, full curve, poor fit]

Q: With `CCOC(=O)C1=C(COC(=O)c2ccc(C)s2)NC(=O)NC1C` (stereo not given) as the compound, how does the Potency read?
A: inactive

Q: With `COc1cc(C(=O)N/N=C/c2cccc(Oc3ccccc3)c2)ccc1O` as the compound, how does the Potency read?
A: inactive

Q: For `CSc1ncc(C(=O)Nc2cccc(S(N)(=O)=O)c2)n1-c1ccccc1`, which Potency is on record?
A: inactive

Q: With `COc1ccccc1NC(=O)N1CC=C(c2c[nH]c3ccccc23)CC1` as the compound, how does the Potency read?
A: inactive

Q: With `Cc1ccc(C(=O)C2CCNCC2)cc1` as the compound, how does the Potency read?
A: inactive

Q: For `COc1ccc(N(CC(=O)N2c3ccccc3CC2C)S(=O)(=O)c2c(C)noc2C)cc1` (stereo not given), which Potency is on record?
A: inactive

Q: With `O=c1c2cc(Br)ccc2nc(-c2ccc([N+](=O)[O-])cc2)n1O` as the compound, how does the Potency read?
A: inconclusive: 14.1 µM [activator, single point]

Q: Which Potency does the source give for `O=C(CN1CCN(Cc2ccc3c(c2)OCO3)CC1)Nc1ccc2[nH]c(=O)[nH]c2c1` here?
A: inconclusive: 5.62 µM [inhibitor, partial curve, poor fit]

Q: For `O=C(Nc1cccc(C(=O)O)c1)/C(=C\c1ccco1)NC(=O)c1ccc(Br)o1`, which Potency is on record?
A: inactive

Q: Which Potency does the source give for `CC12CCC(C(=O)Nc3cc(F)ccc3F)(CC1=O)C2(C)C` (stereo not given) here?
A: inactive

Q: Which Potency does the source give for `COc1cc2c(cc1NC(=O)CN1C(=O)NC3(CCc4ccccc43)C1=O)oc1ccccc12` (stereo not given) here?
A: active: 11.6 µM

Q: For `COc1cc(C=C2C(=O)NC(=O)NC2=O)ccc1OS(=O)(=O)c1ccccc1[N+](=O)[O-]`, which Potency is on record?
A: inconclusive: 12.6 µM [activator, partial curve]

Q: With `Cc1ccc(-c2nc(CN3CCCCC3CCN3CCCC3=O)c(C)o2)o1` (stereo not given) as the compound, how does the Potency read?
A: inconclusive: 15.8 µM [activator, single point]

Q: With `COc1ccc(-c2noc(CCC(=O)NCC3CCCO3)n2)cc1` (stereo not given) as the compound, how does the Potency read?
A: inactive

Q: Which Potency does the source give for `CS(=O)(=O)n1nc(-c2ccco2)nc1N` here?
A: inconclusive: 7.08 µM [inhibitor, partial curve, poor fit]

Q: Which Potency does the source give for `CCC(=O)NNc1ccc(Br)cc1` here?
A: inconclusive: 2.24 µM [inhibitor, full curve, poor fit]

Q: With `COc1ccc(S(=O)(=O)N2CCN3CCCC3C2)cc1` (stereo not given) as the compound, how does the Potency read?
A: inconclusive: 22.4 µM [activator, single point]

Q: For `CCCCOc1cccc(C(=O)N(Cc2ccc(Cl)cc2)C2CCS(=O)(=O)C2)c1` (stereo not given), which Potency is on record?
A: inconclusive: 28.2 µM [inhibitor, single point]

Q: With `Cc1ccn2c(=O)nc(SCC(=O)OCc3ccccc3)nc2c1` as the compound, how does the Potency read?
A: inconclusive: 10 µM [activator, partial curve, poor fit]

Q: With `O=C(Nc1ccc(OCC(=O)N2CCOCC2)cc1)c1ccccc1F` as the compound, how does the Potency read?
A: inactive

Q: For `O=C(Nc1cc(N2CCOCC2)ncn1)c1ccccc1`, which Potency is on record?
A: inactive

Q: With `COc1ccc(CCNC(=S)NCCc2ccc(OC)c(OC)c2)cc1OC` as the compound, how does the Potency read?
A: inconclusive: 14.1 µM [inhibitor, single point]

Q: For `O=C(Nc1ccc(N2CCOCC2)cc1N1CCOCC1)c1ccc(F)cc1`, which Potency is on record?
A: inconclusive: 0.1 µM [inhibitor, partial curve, poor fit]

Q: With `COc1ccc(C2NC(=O)c3ccccc3N2)cc1` (stereo not given) as the compound, how does the Potency read?
A: inconclusive: 17.8 µM [inhibitor, single point]

Q: Which Potency does the source give for `COc1ccc(C(=O)CN2C3=NCCCN3c3ccccc32)cc1OC` here?
A: inconclusive: 0.631 µM [inhibitor, partial curve, poor fit]

Q: With `CCOc1ccccc1-n1c(O)c(C=NCCCn2ccnc2)c(=O)[nH]c1=O` as the compound, how does the Potency read?
A: inactive

Q: Which Potency does the source give for `C[C@@H](C(=O)NNC(=O)c1ccc(Cl)cc1)N1C(=O)C2CC=CCC2C1=O` (stereo not given in full) here?
A: inactive

Q: Which Potency does the source give for `Cc1ccc2nc3ccc(N4CCCCCCC4)nn3c(=O)c2c1` here?
A: inactive

Q: For `CCOc1ccc(NC2=C(Cl)C(=O)N(Cc3ccccc3)C2=O)cc1`, which Potency is on record?
A: inactive

Q: With `COc1ccc(CNC(=S)Nc2ccc(OC)cc2)cc1` as the compound, how does the Potency read?
A: inactive

Q: With `O=C(CN1C(=O)COc2ccccc21)NC1CCCC1` as the compound, how does the Potency read?
A: inactive

Q: With `Cc1sc(=NC(=O)c2ccco2)n(C)c1-c1ccc(F)cc1` as the compound, how does the Potency read?
A: inconclusive: 15.8 µM [inhibitor, single point]

Q: With `Cc1ccc(C)c(NC(=O)COc2cccc3c2CCN(Cc2ccccc2C)C3=O)c1` as the compound, how does the Potency read?
A: inconclusive: 35.5 µM [inhibitor, single point]

Q: For `O=C(COc1ccc2c(c1)CCC2)NCc1cccc(Cl)c1`, which Potency is on record?
A: inconclusive: 1.26 µM [inhibitor, single point]

Q: For `Oc1ccc(-n2nnnc2SCc2ccccc2Br)cc1`, which Potency is on record?
A: inconclusive: 14.1 µM [inhibitor, partial curve, poor fit]

Q: With `Cc1cccc(-n2c(-c3csc(C)c3)n[nH]c2=S)c1` as the compound, how does the Potency read?
A: inconclusive: 32.6 µM [activator, partial curve, poor fit]

Q: With `Cc1cc(C)n2nc(C(=O)OCC(=O)Nc3ccc(F)cc3F)nc2n1` as the compound, how does the Potency read?
A: inactive

Q: For `CCOC(=O)CN(C(=O)CSc1nnc(CNc2ccc(F)cc2)n1CC)c1ccc(F)cc1`, which Potency is on record?
A: inconclusive: 0.562 µM [inhibitor, full curve, poor fit]

Q: With `Cc1ccc(Oc2ccc(-c3nc(N)nc(N)n3)cc2)cc1` as the compound, how does the Potency read?
A: inactive

Q: Which Potency does the source give for `O=C(N/N=C/c1ccc(Cl)cc1Cl)c1cccc(F)c1` here?
A: inconclusive: 1.83 µM [activator, partial curve, poor fit]

Q: For `Cc1nn(CCCC(=O)NCc2ccccc2)c(=O)c2c1sc1ccccc12`, which Potency is on record?
A: inconclusive: 11.2 µM [inhibitor, single point]

Q: For `CN(C)c1ccc(/C=N/Nc2nncc3ccccc23)cc1`, which Potency is on record?
A: inconclusive: 3.16 µM [inhibitor, partial curve, poor fit]

Q: With `Cc1ccccc1-n1c(SCC(=O)O)nc2sc3c(c2c1=O)CCCC3` as the compound, how does the Potency read?
A: inactive

Q: With `CCOC(=O)Cc1csc(NC(=O)CCS(=O)(=O)Cc2ccccc2)n1` as the compound, how does the Potency read?
A: inactive

Q: Which Potency does the source give for `COc1ccc(N=C2SC(CC(=O)Nc3ccc(OC)cc3OC)C(=O)N2C)cc1` (stereo not given) here?
A: inactive

Q: With `CCOC(=O)c1ccc(NC(=O)c2nc(S(=O)(=O)Cc3ccccc3)ncc2Cl)cc1` as the compound, how does the Potency read?
A: active: 11.2 µM

Q: With `CCOC(=O)N1CCc2c(sc3c2c(=O)n(Cc2ccccc2)c(=O)n3Cc2cccc(Cl)c2)C1` as the compound, how does the Potency read?
A: inactive

Q: With `CS(=O)(=O)N(Cc1ccc(C(=O)NN=C2CCCCCC2)cc1)c1ccccc1` as the compound, how does the Potency read?
A: inconclusive: 5.62 µM [inhibitor, single point]

Q: For `c1ccc(-c2nc(-n3nc4ccccc4n3)nc3ccccc23)cc1`, which Potency is on record?
A: inconclusive: 12.6 µM [inhibitor, partial curve, poor fit]

Q: Which Potency does the source give for `Cc1nc(N)nc(Cl)c1CCC1OCCO1` here?
A: inactive

Q: With `NNC(=O)c1cn2ccccc2n1` as the compound, how does the Potency read?
A: inconclusive: 20.6 µM [activator, single point]

Q: With `C/C(=N\NC(=O)c1c(C)nc2ccccn12)c1ccc(C(C)(C)C)cc1` as the compound, how does the Potency read?
A: inactive

Q: For `CC1CN(C(=O)CCC(=O)NCc2cccs2)c2ccccc2O1` (stereo not given), which Potency is on record?
A: inconclusive: 3.16 µM [inhibitor, single point]

Q: Which Potency does the source give for `N#Cc1cc2c(=O)n3ccccc3nc2n(-c2nnc(SCc3ccc(F)cc3)s2)c1=O` here?
A: inconclusive: 6.31 µM [activator, single point]

Q: For `CC(Oc1cc2oc(=O)c3c(c2cc1Cl)CCC3)C(=O)NCc1ccncc1` (stereo not given), which Potency is on record?
A: inconclusive: 3.55 µM [inhibitor, partial curve, poor fit]

Q: With `CCOc1ccc(C(=O)Nc2ccc(Cc3ccncc3)cc2)cc1Br` as the compound, how does the Potency read?
A: inconclusive: 35.5 µM [inhibitor, single point]
